Laboratory results reported in patent publication EP0671947B1, “COMPOSITIONS FOR ELICITING CYTOTOXIC T-[…] AGAINST VIRUSES” (BOARD OF REGENTS THE UNIVERSITY OF TEXAS SYSTEM, priority 1991, dated 1993).
Some of these results come from one statement about several compounds together.

The sequences below were run on BALB/c mice (assay: ELISA for anti-peptide antibody response after immunization). Conditions: high molecular weight forms.

Sequence | anti-peptide antibody titers (in words)
AHKVWATHACV [Peptide 106] | high antibody titers
CVPTNPVPQEVV [Peptide 107] | high antibody titers
EQMHEDIISLWDQ [Peptide 110] | high antibody titers
GVPVWKEATTLFC [Peptide 105] | high antibody titers
NNMVEQMHEDI [Peptide 109] | high antibody titers
VLENVTENFNM [Peptide 108] | high antibody titers
